Data as given in patent US20070031417A1 (UNIVERSITY OF MASSACHUSETTS, published 2007).
These are yes or no findings as the source states them, for the method shown. For some assays here: In cells and extracts the contact can be indirect. Some entries that bind do so weakly or less than the wild type.

Sequences of proteins named here, by UniProt entry; tags and fusion partners are left off. A change or cut given only in a name is not applied to a line headed by its entry.
UniProt P34529: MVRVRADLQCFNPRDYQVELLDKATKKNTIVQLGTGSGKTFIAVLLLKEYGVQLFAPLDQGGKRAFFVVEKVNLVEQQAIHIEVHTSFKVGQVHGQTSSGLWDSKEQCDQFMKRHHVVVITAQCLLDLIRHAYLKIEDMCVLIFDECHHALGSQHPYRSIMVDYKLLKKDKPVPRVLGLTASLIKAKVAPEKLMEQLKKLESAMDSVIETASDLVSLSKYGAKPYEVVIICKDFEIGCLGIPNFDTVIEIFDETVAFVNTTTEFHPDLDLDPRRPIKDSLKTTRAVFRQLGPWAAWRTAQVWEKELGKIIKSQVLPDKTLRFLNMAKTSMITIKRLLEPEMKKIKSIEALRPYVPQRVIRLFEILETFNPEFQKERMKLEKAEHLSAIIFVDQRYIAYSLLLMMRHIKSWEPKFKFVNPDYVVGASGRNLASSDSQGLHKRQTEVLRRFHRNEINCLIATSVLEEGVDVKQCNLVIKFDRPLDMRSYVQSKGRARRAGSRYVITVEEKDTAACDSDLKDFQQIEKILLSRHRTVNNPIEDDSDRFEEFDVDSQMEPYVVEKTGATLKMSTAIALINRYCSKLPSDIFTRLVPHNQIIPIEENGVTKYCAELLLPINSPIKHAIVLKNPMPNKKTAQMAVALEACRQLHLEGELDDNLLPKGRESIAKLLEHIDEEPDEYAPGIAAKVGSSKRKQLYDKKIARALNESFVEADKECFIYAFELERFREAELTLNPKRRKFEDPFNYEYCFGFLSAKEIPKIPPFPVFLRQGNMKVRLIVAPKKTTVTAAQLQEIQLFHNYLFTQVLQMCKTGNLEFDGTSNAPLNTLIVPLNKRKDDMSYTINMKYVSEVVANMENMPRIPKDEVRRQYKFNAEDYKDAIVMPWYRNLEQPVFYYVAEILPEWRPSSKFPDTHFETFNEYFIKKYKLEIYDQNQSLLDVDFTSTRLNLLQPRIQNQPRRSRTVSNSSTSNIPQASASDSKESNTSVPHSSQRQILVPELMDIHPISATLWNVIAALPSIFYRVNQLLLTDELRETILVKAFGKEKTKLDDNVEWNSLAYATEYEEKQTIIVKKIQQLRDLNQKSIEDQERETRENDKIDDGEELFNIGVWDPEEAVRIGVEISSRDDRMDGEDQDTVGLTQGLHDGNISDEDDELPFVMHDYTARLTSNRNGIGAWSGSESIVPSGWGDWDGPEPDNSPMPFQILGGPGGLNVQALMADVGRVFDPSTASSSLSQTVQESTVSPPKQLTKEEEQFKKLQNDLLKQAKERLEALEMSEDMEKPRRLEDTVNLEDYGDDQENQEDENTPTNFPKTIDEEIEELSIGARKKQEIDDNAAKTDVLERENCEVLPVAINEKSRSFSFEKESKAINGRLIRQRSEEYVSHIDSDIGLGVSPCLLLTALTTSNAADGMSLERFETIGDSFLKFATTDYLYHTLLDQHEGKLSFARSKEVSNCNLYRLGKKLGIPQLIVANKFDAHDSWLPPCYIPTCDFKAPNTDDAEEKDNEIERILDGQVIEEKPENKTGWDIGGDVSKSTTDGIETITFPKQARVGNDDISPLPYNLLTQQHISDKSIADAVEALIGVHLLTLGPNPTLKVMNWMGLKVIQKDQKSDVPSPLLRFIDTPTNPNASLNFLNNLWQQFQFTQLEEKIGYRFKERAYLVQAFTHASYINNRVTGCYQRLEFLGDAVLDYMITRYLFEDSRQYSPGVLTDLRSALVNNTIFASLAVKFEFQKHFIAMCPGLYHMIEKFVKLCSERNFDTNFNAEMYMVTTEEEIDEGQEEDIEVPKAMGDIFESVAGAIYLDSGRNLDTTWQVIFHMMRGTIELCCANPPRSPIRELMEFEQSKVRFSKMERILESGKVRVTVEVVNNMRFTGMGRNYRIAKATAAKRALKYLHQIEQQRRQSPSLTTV

How the values were obtained:
[1] = biological target: Dicer (DCR-1), C. elegans (Caenorhabditis elegans) (UniProt P34529); experiment: gravid adult DCR-1 purification on anti-DCR-1 matrixes, MudPIT (A)
[2] = biological target: Dicer (DCR-1), C. elegans (Caenorhabditis elegans) (UniProt P34529); experiment: adult DCR-1 purification, MudPIT
[3] = biological target: Dicer (DCR-1), C. elegans (Caenorhabditis elegans) (UniProt P34529); experiment: DCR-1 purification, MudPIT
[4] = biological target: DCR-1::8xHA fusion protein (Caenorhabditis elegans) (UniProt P34529); experiment: embryonic DCR-1::8xHA purification, MudPIT
[5] = biological target: DCR-1::8xHA fusion protein (Caenorhabditis elegans) (UniProt P34529); experiment: embryonic DCR-1::8xHA purification on HA matrixes, MudPIT (E)
[6] = biological target: Dicer (DCR-1), C. elegans (Caenorhabditis elegans) (UniProt P34529); experiment: co-IP with DCR-1, antibody matrix, purification 4, MudPIT (P = present)
[7] = biological target: Dicer (DCR-1), C. elegans (Caenorhabditis elegans) (UniProt P34529); experiment: gravid adult DCR-1 purification on anti-DCR-1 matrixes, MudPIT (A); western detection (W)
[8] = biological target: Dicer (DCR-1), C. elegans (Caenorhabditis elegans) (UniProt P34529); experiment: co-IP with DCR-1, second antibody matrix (1001), minus controls, MudPIT (P = present)
[9] = biological target: Dicer (DCR-1), C. elegans (Caenorhabditis elegans) (UniProt P34529); experiment: co-IP with DCR-1, antibody matrix, purification 3, MudPIT (P = present)
[10] = biological target: Dicer (DCR-1), C. elegans (Caenorhabditis elegans) (UniProt P34529); experiment: co-IP with DCR-1, antibody matrix, purification 2, MudPIT (P = present)
[11] = biological target: DCR-1::8xHA fusion protein (Caenorhabditis elegans) (UniProt P34529); experiment: embryonic DCR-1::8xHA purification on HA matrixes, MudPIT (E); western detection (W)
[12] = biological target: Dicer (DCR-1), C. elegans (Caenorhabditis elegans) (UniProt P34529); experiment: co-IP with DCR-1, antibody matrix, purification 1, MudPIT (P = present)

Measured: binding

B1: PIR-1 (T23G7.5) (enzyme)
chain: MPEPRCTAIVNFLNLSHSILISIFSVSVMSNYHHNHNYQHRPRGYERLPGKRLPDRWNIYDNVGRDIDGTRFVPFKTPLDSSFFDGKNMPVELQFGVKTLISLAQQANKQIGLVIDLTNTDRYYKKTEWADHGVKYLKLNCPGHEVNEREDLVQDFINAVKEFVNDKENDGKLIGVHCTHGLNRTGYLICRYMIDVDNYSASDAISMFEYYRGHPMEREHYKKSLYEAERKKKYGKSSGKSSGNSADSTISSEQLHRNNSQ
binds: [1] | [2] | [3] | [4] | [5]

B2: TAF 6.1 (protein)
chain: MSKTVTIRRPSPTKTSEEPAAHQTPIFTQTAAEMLGITSLNTEAAELLEFLSREKLKEIVRLSAKWTQKSARRRMAVADVEHAIRSTRQCGGLNISSVDTLNLGIQQLQPIQGTSTGIYSFLKSSADVDVDKEDTETFIKIPRDLRVISYPLVNEGQPVQSEYTVNVDEDDGNFFEKIVPEVMTMIPEKNTPSSSTTSSLQMFRDAVKTAKIDQKVGLKPSTIEILTVEQQIFMKDIITVCMGQDDKKRHEALYTLETDAGLQVFLPHLTERICKSISANISQRCLSLIIYAGRVLRSLSHNKACDMTVTLHHVLPALLSCCVGRNMCLRPETDNHWALRDFSAKTLVGLVRDQVDKHDAGRTARRLFDFSHRIFRDTGSSFSMIYGTVHILQEFVAGPKKAAWLLTELGETNARCKSHIESGSRIGASQLSIQEAQKLNQQILKCENSIRNRYNLQQQAPGVPINRRFH
binds: [5]

B3: DRH-2 (enzyme)
chain: MIVNLCNEHRDPLDDEYPPEQFFLSTFTIIFFDECHNTVKNSPYSNVMREYHYLKNMGNMPEGHSFPQIIGLTASLGTGDKKNCMQVRSYIAGLCANMDVKELSIVKDNLEELLDHNPFVTDQVSFCERSNDGPIEMFTKRLKQMMQEVEDLIRTTLKNEPTVKYEIPPTDKEHNRYENWISNQRNCVSLAGSRNKTLIIEVLDVLKDCFYALSYNINFNPEVALKKYLEKELGPERIRNFTDNMNLIWDNCHRELVGIGSAENPMIARTVQFILDQNEQTSDFRAIIFVRTKKEADFLNYVLNDRLHELGIKSDWMSGQKKSTASSADISASKQKQMEKLKMFADGENQILVSTSVAEEGLDIPECSLVIKYNYATNETAHVQRRGRARARNSKCVLITNSIALHVQESNNLAKENLMTETISLIQNSPGEFRQCVDEESNKVWPRIQREDTDKAQRIKEQINRNIVYKIVCMKCDTVLCTNKDIRSKNTQYIVCNPGFWSLVRRIPLPLEQRASNKFNSTGSIECLGERCGSKLGQLIDVNTVNLPCLKVKSILLLIESTNERILVKQWKNILDEHFTPTTLKQRDVQTMKDADYGRAPIEFEHHTANGEVINVIRQA
notes: Endogenous protein from C. elegans extract; also called C01B10.1; Dicer-Related Helicase
not listed: [1] | [2] | [4] | [5]
binds: all other assays above

B4: DRH-3 (D2005.5) (enzyme)
chain: MQPTAIRLEDYDKSKLRLPFESPYFPAYFRLLKWKFLDVCVESTRNNDIGYFKLFESLFPPGKLEEIARMIIDEPTPVSHDPDMIKIRNADLDVKIRKQAETYVTLRHAHQQKVQRRRFSECFLNTVLFDEKGLRIADEVMFNYDKELYGYSHWEDLPDGWLTAETFKNKFYDEEEVTNNPFGYQKLDRVAGAARGMIIMKHLKSNPRCVSETTILAFEVFNKGNHQLSTDLVEDLLTEGPAFELKIENGEEKKYAVKKWSLHKTLTMFLAIIGFKSNDKKEKNEHEEWYYGFIDAMKNDPANRAALYFLDKNWPEELEEREKERDRIRLTLLKSQRTNEEAVGEDVCTTIRPQPKDSGYNPDAVVTELVLRTYQEELVQPALEGKNCVIVAPTGSGKTEVAIYAALKHIEERTSQGKPSRVVLLVPKIPLVGQQKDRFLKYCNGMYEVNGFHGSESSVSGTGRRDEVIATHVSVMTPQILINMLQSVRQNERLYVSDFSMMIFDEVHKAAKNHPYVLINQMVQEWKYEKPQIIGLTASLSVKVDGQKDENQMLNDIYNMLALINAPHLSTITRQSSIDELNEHVGKPDDSVELCLPAKENILRDYIERYLNHAHGKFLEELASMSKSTGRNNTIPPNMINTFKKNQPKNYEYYDSLLQGIIQELNKLNVPEKWNSQTWAKYMKVYLEARGIVDLMPAMVAFKYMEKAIGKLNESHSETVEYSTFIKDHDTLKQTIQSVEPEIVLRLKNTLTNQFHVAPESRVIIFVTQRSTAQRVSDFLNESKVLDQFGNYGEQMVGYVLGTNKQGAVQQTSQEQQLTLDKFNNGRLKVIVATSVVEEGLDVTACNLIIKYNCSSGSAIQLVQQRGRARAKNSRSVLLSVKSSINETETNALISEKYMRLCVKKITENGEKQLAAEVKRVAELNAAERKRNLEEQLNLRLRHENKIYKLMCSNCSKEFCKSIYIKKVFSNYMVFDPSVWRFLHVESKRKVSKYLSEDNQPLSDIKCFHCKLDVGRAYKIRGTYLPQLSVKALTFVQESDYSSMTKAKWSDVEQDLFYISEAIEDDFRIMLNALSDTEENIEKKIVLDLDSRQHNKQLEMKRFHIQQEPPTKGVAPEAQ
binds: [1] | [3] | [5]

B5: ERI-3 (W09B6.3) (protein)
chain: MQPVLVNSRPLRVKSHESESKLNLIEQEDQFEGANYSSSSGVIICYSNGTGEVITQEAFDDSGIHFIFSKATCIQYPSNFDPIGVGSVVQIFWSRSFERVVRGNHIIVQIEKMEVYKCCAMLREQVFVTFNSPSTAGVAIGVTERNITVAFHPNCSPVIRYETLKAHSIGRTEFEIKDRHRENTNRMVDVILAAVPFRVEIHGNVDKIPFFVIEKCRNSPGRSGAAVITKIMKNHFMEANFLQNSESIYFDSTSCHSNILEKVSIGSLINVLADPTFATSSYKWYGYDVTLCNNYLAHASTQRSFVLENNEILQNCKKLEKSPEEAETTTKNDLRFVPPQPEKGEVKKKKMTNCLKFNSKSAQFKLRHLILDRCFSELPEREAKSIINSYFIDRLAEGIKIEKIDKNWRTFGEILPKTPKKYSESLKKSIQNVLEPFGLNKPEKAAETPKIVEYFPKNPKKRVEIVEKPTVDEIRELFGALMDAEGFALNQRVKPHFVLPDTRWKPTERRYIGIYDDVQWTFMSTFCPKIEENSENRPLAGGWWYRRTVPRDHPVEIVQKMETRRNIIKDCTESPFIE
binds: [1] | [3] | [5]

B6: ERI-5 (Y38F2AR.1) (protein)
chain: MAMAPLRPRVFARCLILKNLELIEAARIFFIDSAVTANVSWKCLFQIDENLKFHPWQAMHCTLGRLVHLSDSWTDTQCTEFRNIVSKFAKFQITANQCDVDFRSDRPSLLVNLYGLPNGTEIDKKVAIEEICAVSMQNVMVSQFPTNFMVNPKLEELDKEQDHLDVILLEEFRRDLPADWAHEPPADYREDDADWDILQCHVAEWNDTALEQFRRADGSFWAMLEPSCTVSPWEMHVTPILAPEKMSDNEHWIFEQLVKNSENQQKIDDFYSNLKNQRPLEMEEIKFALQTGRTYVMATIKNRQKSSAQWLRCEIIDFLPNANVALRYVDLGTRGILKLKNLHRMHIEHTKIAPACIEIGRFLDDDLSMADSEMEWNTHFWREIVPYDVPIVVGPDMEFLETGKLQFSQIRVAGDEDDENLLDKIPSPSPFFTERSDDLRTQKEDDDDGNVSDDKDSG
binds: [1] | [3] | [5]
